{"source": "patent US20040262585A1", "about": "“Use of dendrimers and poly-branched molecules to enhance signal in fluorescent assay systems” (priority 2004, published 2004)", "target": "T1, α-chymotryspin, bovine pancreas (Bos taurus, UniProt P00766)", "T1 construct": "purchased Calbiochem; host or cells: bovine pancreas", "experiment": "Cleavage by chymotrypsin, fluorescence against time", "type": "biochemical", "conditions": "10 μM peptide, 0.3 μM chymotrypsin, pH 8.1 HEPES, 25° C.", "note": "Part of at least one peptide drawing is inferred or uncertain, most often the ends.", "data": [{"molecule": "CC(C)C[C@H](NC(=O)[C@H](CCCCNC(=O)OC(C)(C)C)NC(=O)[C@H](C)NC(=S)Nc1ccc2c(c1)C(=O)OC21c2ccc(O)cc2Oc2cc(O)ccc21)C(=O)N[C@@H](C)C(=O)NCCCNC(=O)CCN(CCCCN)CCC(=O)NCCCNC(=O)[C@H](C)NC(=O)[C@H](CC(C)C)NC(=O)[C@H](CCCCNC(=O)OC(C)(C)C)NC(=O)[C@H](C)NC(=S)Nc1ccc2c(c1)C(=O)OC21c2ccc(O)cc2Oc2cc(O)ccc21", "note": "[Compound 17, FITC-Ala-Lys(Boc)-Leu-Ala ‘PAMAM’ dendrimer peptide]", "values": [{"measurement": "increase in fluorescence by enzyme cleavage (FIG. 2)", "result": "increase in fluorescence"}]}]}
